# Assay results reported in the supplement of paper PMC3334620.
# Over roughly 33,000 sequences, “E-score (-0.5 to 0.5)” has its median near -8e-05; the highest 2% begin near 0.23. Some of the results follow.
# Target: T1, Nrg2 (UniProt P38082)
# T1 sequence: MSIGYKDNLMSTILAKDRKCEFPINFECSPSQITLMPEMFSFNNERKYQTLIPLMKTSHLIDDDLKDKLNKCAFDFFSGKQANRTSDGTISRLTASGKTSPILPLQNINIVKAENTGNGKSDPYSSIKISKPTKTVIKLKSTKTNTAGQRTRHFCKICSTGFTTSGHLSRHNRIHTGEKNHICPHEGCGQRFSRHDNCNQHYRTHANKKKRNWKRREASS
# Assay: PBM E-score (8-mer binding enrichment) (E-score (-0.5 to 0.5)); higher = stronger / more preferred TF binding
# Conditions: protein concentration: 100 nM; construct: GST-full length
# In short: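 GST-tagged yeast TFs (full-length or DNA-binding domain) were made by PURExpress in vitro transcription/translation and applied at about 100-200 nM to universal all-10-mer Agilent arrays. The arrays were made double-stranded by primer extension, on fresh or once-stripped slides. Bound protein was detected with fluorescent anti-GST, and scans were normalised with masliner. Each ungapped eight-base word, pooled with its reverse complement, received an E-score (modified Wilcoxon-Mann-Whitney statistic) from the Universal PBM Analysis Suite.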
row,Sequence,PBM E-score
1,AGATTAGG,-0.055
2,GGCGGATA,0.0265
3,AAACATTC,-0.0492
4,CGCCTTCC,-0.297
5,CGACGACC,-0.0281
6,AAGGTTAA,-0.0201
7,ACGTAGCA,0.0226
8,CTGTCAGA,0.11
9,CCTCGACA,-0.0179
10,CTACAGTA,-0.0466
11,ATCCGTAG,-0.219
12,TAAGATGA,0.025
13,CTGCAATC,0.0966
14,GACAATAC,0.232
15,AGAACGGA,-0.0712
16,AGTCCGAC,-0.138
17,ATGGAGAA,0.0935
18,GGAAATAC,7e-05
19,AGCGTTAC,-0.146
20,CCCCAGAC,-0.226
21,ACGCAACG,0.0759
22,ATATAGAC,-0.0547
23,CACCGTAA,-0.0346
24,CACCTCGA,0.256
25,ACTCAAAA,0.161

row,Sequence,PBM E-score
1,AGTCGTTC,-0.219
2,AGATGGAT,-0.00928
3,ATTAGAGG,-0.169
4,CCTGCGCC,-0.00969
5,ATTCTTAC,0.0813
6,CCCAGGTC,-0.299
7,TCACTGAA,0.135
8,AAAACTCG,0.0385
9,CATCTCTC,0.148
10,AAAACTGA,-0.0495
11,AGTCTGAC,0.0109
12,GATGGCAC,-0.111
13,CGCGACCA,0.23
14,GGTGGGTA,0.0177
15,ATCCTTCG,-0.0731
16,CACGATTA,0.0388
17,CGTAGCGA,0.0115
18,ACTCGAAT,-0.0643
19,CAGCTTCA,-0.166
20,TCAGCGAA,-0.0216
21,CACACGAG,-0.0946
22,ATTTTGTA,0.0995
23,ATTCTCCG,0.107
24,AAACACGA,0.0493
25,AGATTATA,0.0559

row,Sequence,PBM E-score
1,CCGCAAGG,0.117
2,ATTGCGGA,0.119
3,GAGTCCAC,-0.0518
4,CTAACGCA,-0.025
5,AAGACGCT,-0.178
6,GCGAGGCA,0.148
7,TATGAACA,0.0271
8,AAATGGAA,0.0261
9,ATTTAATA,0.247
10,GCGCTACC,-0.139
11,AAGAAGCA,-0.0436
12,TTATCAAA,0.0866
13,CTAATCGC,0.14
14,CGAGAAAA,-0.058
15,CTCAGACC,0.0297
16,AGTAATAT,0.137
17,CAGCCACC,-0.125
18,GTGAGGTA,-0.165
19,CAGGGCTC,0.0594
20,CACAAAAG,0.151
21,CCTACGAC,-0.0786
22,CGCTGAGC,0.0528
23,TCGTAAAA,-0.00421
24,CCAACCAA,-0.0266
25,ACACGGCC,-0.0946

row,Sequence,PBM E-score
1,AGGCGGTG,-0.143
2,CAGCCCTC,-0.262
3,CCTCTGCA,-0.0772
4,ACTAGCCG,-0.0904
5,TCATGCCA,0.0156
6,CTATGGCA,-0.0101
7,CTCTCCAA,0.0112
8,CCGTTGAG,-0.141
9,ATGGCACA,0.011
10,TCTTTTAA,-0.0015
11,ACCGTAAG,-0.0598
12,CCGCGGGA,0.284
13,ATGGGCTA,0.0965
14,CCGGAGGA,-0.344
15,ACTAACTA,0.06
16,CAAAAGTA,0.0162
17,AAGTCTCG,-0.168
18,GGTTTTTA,-0.00507
19,AGTTGGGC,0.128
20,GACCGAAA,0.0884
21,ATAGCTAC,-0.0453
22,ACGACGCT,-0.161
23,GCTCGAGA,-0.131
24,CCCGTTAA,-0.00327
25,ACAATAAA,0.136

# Copied from the list.
# Entry for GCGCTACC under PBM E-score: -0.139
# Entry for ATTCTTAC under PBM E-score: 0.0813
# Entry for AGGCGGTG under PBM E-score: -0.143
# Entry for CGCGACCA under PBM E-score: 0.23
# Entry for CACCTCGA under PBM E-score: 0.256
# Entry for ACTAACTA under PBM E-score: 0.06

# Later entries

row,Sequence,PBM E-score
1,AACATTGG,-0.192
2,AGGTGTTA,-0.101
3,ACTGTCAC,-0.067
4,CAGGGTTA,0.0393
5,AGACATCA,-0.0341
6,CGACGTCC,0.0832
7,GGCCATGA,0.109
8,GTTGTACA,0.147
9,GCTTATGA,-0.0632
10,GCCGTTGA,0.0631
11,AGATCTCA,0.0774
12,GCTCGATA,0.133
13,CGGGGTCC,0.145
14,GAGAACGA,0.143
15,AAGGGTCG,0.132
16,GGCTGTAA,-0.0744
17,AGGCATTA,-0.091
18,CATCGACG,0.0941
19,CGCATCCA,-0.00975
20,GTAGTGAC,-0.00931
21,TCTCTGCA,-0.121
22,AAGTTGTA,0.154
23,CGGGGATA,-0.0457
24,CCACATCG,-0.128
25,ATAATTTG,0.182

row,Sequence,PBM E-score
1,ACGCCACC,-0.148
2,CGATTATC,-0.0579
3,AAACAACA,-0.00449
4,TCTGAAGA,-0.0939
5,CTTTTAAA,-0.168
6,ATTACCTG,-0.00837
7,CCGCAGCA,0.012
8,AAGGCCGT,-0.107
9,ACCGCATG,-0.0341
10,AGGCGCCG,-0.0298
11,AGTGTTAC,0.0833
12,ACGCTTGA,0.0675
13,GTAGTATA,0.181
14,AAATGGCA,0.0923
15,AAGGCTTA,-0.202
16,CATGCTCG,-0.0652
17,ATGGGACG,-0.0206
18,CAAAGGGC,0.00955
19,ATGTTAAT,-0.0856
20,GAGGGACA,0.0412
21,AGATTAAA,0.208
22,CCATTGAC,-0.179
23,CCAGCCGC,-0.0131
24,ATTCTAAA,0.0362
25,AGAGTACG,0.0104

row,Sequence,PBM E-score
1,TCCGTTCA,-0.0761
2,AGGCTCGC,-0.0786
3,AACGTAAT,0.163
4,CGAAGGAA,-0.114
5,ATAAGGGA,0.0808
6,ATCGGAGC,-0.0585
7,CCCGATGC,-0.0449
8,GCCCTGGA,0.247
9,ACACAAAC,-0.0669
10,ACACCAGT,-0.17
11,AGAACCCA,-0.0364
12,CATAGGAA,-0.131
13,TATTTGGA,-0.115
14,GGCTATGA,-0.161
15,GAGGACCA,-0.0882
16,CCACGAGA,0.00103
17,AGTCCTCC,-0.277
18,CCCAGACA,-0.081
19,GCACTGAC,-0.04
20,CGCGCAAC,0.113
21,ATGGACCA,-0.0515
22,GTGTGTTA,0.19
